Publication PMC10924461, “Structure and ligand binding in the putative anti-microbial peptide transporter protein, YejA” (Microbiology, 2024)
Results are given in words; binding and its absence hold for the method and conditions named. Binding seen in cells or lysates may run through a third protein. These calls come from enrichment with a bait or labelling near it, and not all partners need be listed.

T1: YejA, periplasmic solute-binding protein of the YejABEF ABC transporter from E. coli (E. coli K12) (UniProt P33913)
T1 sequence: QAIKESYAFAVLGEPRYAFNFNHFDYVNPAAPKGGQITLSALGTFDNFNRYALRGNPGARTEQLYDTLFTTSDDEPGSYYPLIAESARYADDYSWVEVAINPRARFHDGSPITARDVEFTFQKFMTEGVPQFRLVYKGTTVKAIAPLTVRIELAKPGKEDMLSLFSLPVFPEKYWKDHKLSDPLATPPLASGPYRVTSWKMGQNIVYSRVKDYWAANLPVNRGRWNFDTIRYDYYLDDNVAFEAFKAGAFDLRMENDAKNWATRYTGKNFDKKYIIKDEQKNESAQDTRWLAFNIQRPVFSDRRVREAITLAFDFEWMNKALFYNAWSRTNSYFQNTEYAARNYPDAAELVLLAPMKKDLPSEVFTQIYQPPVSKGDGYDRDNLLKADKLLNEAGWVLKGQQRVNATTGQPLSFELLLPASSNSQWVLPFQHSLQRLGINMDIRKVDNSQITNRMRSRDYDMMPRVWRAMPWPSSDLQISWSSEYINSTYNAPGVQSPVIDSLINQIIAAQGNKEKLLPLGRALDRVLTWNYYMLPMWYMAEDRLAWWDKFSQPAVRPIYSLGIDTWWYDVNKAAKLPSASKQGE

B1: … (peptide)
peptide: VLGEPRYAFNFNH
B2: … (peptide)
peptide: FAVLGEPRYAFNFNH
B3: … (peptide)
peptide: AVLGEPRYAFNFNH
B4: … (peptide)
peptide: VLGEPRYAFNFNHFDY
B5: … (peptide)
peptide: AFAVLGEPRYAFNFNHFDY
B6: … (peptide)
peptide: AVLGEPRYAFNFNHFDY
B7: … (peptide)
peptide: FAVLGEPRYAFNFN
B8: … (peptide)
peptide: VLGEPRYAFNFNHF
B9: … (peptide)
peptide: AFAVLGEPRYAFNFNHF
B10: … (peptide)
peptide: VLGEPRYAFN

molecular target: T1, YejA, periplasmic solute-binding protein of the YejABEF ABC transporter from E. coli (E. coli K12); assay: affinity purification with mass spectrometry; peptides stripped from purified YejA preparations (TFA, C18 ZipTip) and identified by MALDI-MS/MS against the YejA sequence

Row | binding | Binder
1 | binds | B1
2 | binds | B2
3 | binds | B3
4 | binds | B4
5 | binds | B5
6 | binds | B6
7 | binds | B7
8 | binds | B8
9 | binds | B9
10 | binds | B10
